Data published in the supplement of paper PMC10338343.
± gives the standard deviation. This is a selection; strong and weak results do not stand in their true shares. Many entries were measured with a wide error.

Test system: MILI (PIWIL2) piRISC loaded with L1MC piRNA (26 nt)
Assay: pre-steady-state target cleavage rate (min^-1); MIWI and MILI are mouse PIWI proteins and EfPiwi is from a freshwater sponge; tags in brackets are library labels; higher = faster piRNA-guided slicing of the target
Details: guide: L1MC piRNA 5'p-UAACUAAAUACUAUGCAAGCUGUAGG; auxiliary factor: 500 nM mouse GTSF1
Procedure: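 Cleave-'n-Seq: a library of target RNAs (target site embedded in constant flanks, ACAGCATTCCGCGTTAGTGATATCCG... 5' flank; DNA-blocked outside the site) at 0.1 nM was incubated with 1 nM active mouse MILI or MIWI piRISC (synthetic 5'-monophosphorylated piRNA guide) with or without 500 nM mouse GTSF1 at 33 °C for 1 min to 16 h. Uncleaved targets were sequenced and normalised to non-target controls, and the pooled three trials were fitted to a burst-and-steady-state model to give the pre-steady-state cleavage rate (min^-1; k3 is constrained to at most 1e-4). Sequence is the target site only; target names encode pairing extent (gX:gY) and contiguous / 1-mismatch / 2-mismatch / bulge geometry. Fits with R² ≤ 0 are excluded.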

Row | Sequence | pre-steady-state target cleavage rate
1 | UCCUGGAUGUCGAUGCAUUGUUUUUAGUUA | 0.000564 ± 0.013
2 | UCCUGCUAACAGCUUGCAUAGUAUUUAGUUA | 0.307 ± 0.033
3 | UCCUGGUACAGCGUUGCAUAGUAUUUAGUUA | 0.196 ± 0.027
4 | UCCUGGUACAGGUUGCAUAGUAAUUAGUUA | 0.325 ± 0.041
5 | UCCUGGAUCAACUUGCAUAGUAUUUAGUUA | 0.265 ± 0.017
6 | UCCUGGAUCAGCUUGGUUAGUAUUUACAAA | 0.00756 ± 0.0052
7 | UCCUGGAUCACCUUGCAUAGUUUUUAGUUA | 0.016 ± 0.0061
8 | UCCUGGAUCAGCUUGCAUAGUAUUAGUUA | 0.141 ± 0.018
9 | UCCUGCUACUCGUUGCAUAGUAUUUUCAAA | 0.0428 ± 0.014
10 | UCCUGGAACAGCUUGCAUAGUAAUUUCAAA | 0.0786 ± 0.026
11 | UCCUGGAUGUGCUUGCAUCAGUAUUUAGUUA | 0.00297 ± 0.0044
12 | UCCUGCUACAGCUUGCAUGAGUAUUUAGUUA | 0.0058 ± 0.0041
13 | UCCUCCUACAGCUUGCAUAGUAUUAAGUAA | 0.17 ± 0.037
14 | UCCUGGUACAGCUUGCAUAGUAUUAUCUAA | 0.0327 ± 0.012
15 | UCCUGGAUGUCGAUGCAUAGUUUUUACUUA | 0.000541 ± 0.014
16 | UCCUGCAUGAGCUUGCAUAGUAUUUAGUAA | 0.234 ± 0.024

Same assay, conditions: guide: L1MC piRNA 5'p-UAACUAAAUACUAUGCAAGCUGUAGG; auxiliary factor: none (no GTSF1)

Row | Sequence | pre-steady-state target cleavage rate
17 | UCCUGGAUGUCGAUGCAUUGUUUUUAGUUA | 0.00073 ± 0.009
18 | UCCUGGUACAGCGUUGCAUAGUAUUUAGUUA | 0.0109 ± 0.0053
19 | UCCUGGUACAGGUUGCAUAGUAAUUAGUUA | 0.00664 ± 0.0029
20 | UCCUGCUACAGCUUGCAUAGAUAAAUCAAA [g11:g25:cont:t1A] | 0.000161 ± 0.023
21 | UCCUGGAUCAACUUGCAUAGUAUUUAGUUA | 0.00729 ± 0.0025
22 | UCCUGGAUCAGCUUGGUUAGUAUUUACAAA | 0.00109 ± 0.005
23 | UCCUGGAUCACCUUGCAUAGUUUUUAGUUA | 0.00336 ± 0.0034
24 | UCCUGGAUCAGCUUGCAUAGUAUUAGUUA | 0.00276 ± 0.0031
25 | UCCUGGAUGUCGAAGCAUAGUAUUUAGCUA | 0.000447 ± 0.012
26 | UCCUGCUACUCGUUGCAUAGUAUUUUCAAA | 0.00112 ± 0.0045
27 | UCCUGGAACAGCUUGCAUAGUAAUUUCAAA | 0.00107 ± 0.0074
28 | UCCUGGAUGUCGAAGCAUAGUUAAAUCAAA [g10:g16:cont:t1A] | < 0.0001
29 | UCCUGGAUGUGCUUGCAUCAGUAUUUAGUUA | 0.00089 ± 0.0093
30 | UCCUGCUACAGCUUGCAUGAGUAUUUAGUUA | 0.00173 ± 0.0033
31 | UCCUGGAUGUCGAAGCAUAGUAUUUACAAA | 0.000181 ± 0.026
32 | UCCUCCUACAGCUUGCAUAGUAUUAAGUAA | 0.00176 ± 0.0038
33 | UCCUGGAACAGCUAUGCAUAGUAUUUAGUUA | 0.0036 ± 0.0037
34 | UCCUGGAACAGCUUCCAUAGUUUUUAGUUA | 0.00086 ± 0.0068
35 | UCCUCCUACAGCUUGCUUAGUAUUUAGAAA | 0.00152 ± 0.0037
36 | UCCUGGUACAGCUUGCAUAGUAUUAUCUAA | 0.00122 ± 0.0054
37 | UCCUCCUACAGGUUCCAUAGUAUUUAGUUA | 0.000936 ± 0.0059
38 | UCCUGGAUGUCGUUGGAAAGUAUUUAGUUA | 0.000187 ± 0.028
39 | UCCUGGAUGAGCUUGCAUAGUAUUAUCUUA | 0.000586 ± 0.011
40 | UCCUGGAUGUCGAUGCAUAGUUUUUACUUA | 0.000323 ± 0.017
41 | UCCUGCAUGAGCUUGCAUAGUAUUUAGUAA | 0.00554 ± 0.0022
